No constants are given. Whether binding was seen depends on the method and setting. In cells and extracts the contact can be indirect. Some results given as binding are weak or reduced against the parent protein; the word gives no strength.

Amino acid sequences for entries named in this document (tags omitted).
UniProt O14980: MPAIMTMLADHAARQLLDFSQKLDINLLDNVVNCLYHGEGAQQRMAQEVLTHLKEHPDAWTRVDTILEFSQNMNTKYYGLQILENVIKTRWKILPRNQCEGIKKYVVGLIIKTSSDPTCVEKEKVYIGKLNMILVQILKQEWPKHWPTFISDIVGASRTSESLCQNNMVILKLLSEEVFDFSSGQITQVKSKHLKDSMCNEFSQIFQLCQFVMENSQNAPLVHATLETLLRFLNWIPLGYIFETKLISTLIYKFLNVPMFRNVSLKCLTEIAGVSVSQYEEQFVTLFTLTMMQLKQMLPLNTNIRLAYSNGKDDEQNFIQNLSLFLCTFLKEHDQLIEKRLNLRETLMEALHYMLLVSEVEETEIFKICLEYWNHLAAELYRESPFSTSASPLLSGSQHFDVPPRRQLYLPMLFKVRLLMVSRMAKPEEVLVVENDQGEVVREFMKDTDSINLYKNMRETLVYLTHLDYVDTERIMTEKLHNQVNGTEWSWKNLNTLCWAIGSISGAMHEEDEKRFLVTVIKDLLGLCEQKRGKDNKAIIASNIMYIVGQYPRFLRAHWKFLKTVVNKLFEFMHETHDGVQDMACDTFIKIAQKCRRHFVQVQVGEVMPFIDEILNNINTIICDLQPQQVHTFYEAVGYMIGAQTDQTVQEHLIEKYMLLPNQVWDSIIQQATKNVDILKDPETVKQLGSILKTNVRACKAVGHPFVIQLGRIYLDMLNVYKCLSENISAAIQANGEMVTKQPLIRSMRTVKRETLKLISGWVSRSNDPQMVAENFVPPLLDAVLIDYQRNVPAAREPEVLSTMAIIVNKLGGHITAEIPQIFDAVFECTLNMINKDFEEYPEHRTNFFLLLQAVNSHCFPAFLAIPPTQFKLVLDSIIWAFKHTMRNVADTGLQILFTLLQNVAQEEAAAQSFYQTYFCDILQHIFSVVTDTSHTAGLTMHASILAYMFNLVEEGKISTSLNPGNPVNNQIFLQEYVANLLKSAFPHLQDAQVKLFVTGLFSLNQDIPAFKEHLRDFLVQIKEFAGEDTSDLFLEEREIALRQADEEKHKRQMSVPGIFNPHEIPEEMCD
UniProt P15682: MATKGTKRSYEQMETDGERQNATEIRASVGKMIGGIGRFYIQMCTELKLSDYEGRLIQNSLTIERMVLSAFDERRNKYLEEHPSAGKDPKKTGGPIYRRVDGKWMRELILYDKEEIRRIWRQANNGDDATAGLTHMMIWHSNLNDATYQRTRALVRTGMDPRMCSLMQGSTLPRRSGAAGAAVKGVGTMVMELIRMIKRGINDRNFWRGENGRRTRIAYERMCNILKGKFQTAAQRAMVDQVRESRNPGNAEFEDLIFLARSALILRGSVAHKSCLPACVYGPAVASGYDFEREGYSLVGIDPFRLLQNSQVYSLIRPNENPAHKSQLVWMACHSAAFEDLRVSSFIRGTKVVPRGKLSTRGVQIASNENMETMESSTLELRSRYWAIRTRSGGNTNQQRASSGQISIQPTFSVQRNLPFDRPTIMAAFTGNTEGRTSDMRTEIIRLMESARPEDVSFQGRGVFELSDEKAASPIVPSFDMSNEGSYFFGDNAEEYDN

Drawing on publication PMC6692485, this text covers binding for one substance.

The experiment addresses FLAG-CRM1 (cellular export receptor CRM1, Chromosome Region Maintenance protein 1) (UniProt O14980). Nature of the experiment: co-IP.

Consider “MYC-NP, wild type (nucleoprotein of influenza virus A/WSN/1933 (H1N1)) (from UniProt P15682 1-498)”, for which the binding entry is reported as “binds”.
